{
  "source": "PubChem BioAssay AID504648",
  "about": "(National Center for Advancing Translational Sciences (NCATS), 2011)",
  "note": "Among all 390,000 compounds or so, about 610 (0.16%) were called active. Inconclusive results, whose numbers are uncertain, are shown with a selection of clear calls. Calls follow the shape of the dose curve; as a rule, active = well fitted inhibition curve with a large enough effect; inconclusive = small, poorly fitted or top-dose-only effect, or effect the other way, or another doubt; inactive = no such curve, though single readings can be large or run the other way. A potency beside an inconclusive call is a rough fit, not a confirmed value. % is scaled to controls: 0 for no effect and ±100 for the full control effect; potency is read from the fitted curve at half-maximal effect.",
  "data": [
    {"assay": "Nrf2 qHTS screen for inhibitors: counterscreen for cytotoxicity", "conditions": "A549 ARE-Fluc cells, CellTiter-Fluor viability, 18-24 h; activity change, negative = cytotoxicity: at 46 µM (top of the series)", "procedure,_shortened": "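Cytotoxicity counterscreen: CellTiter-Fluor fluorescence was measured in A549 ARE_Fluc cells after 18-24 h of compound exposure in a concentration series. The subsequent BugLite luminescent read reports ARE-luciferase activity.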", "values": [
      {"smiles": "COc1cccc(C(=O)Nc2ccc(Cl)c(-c3nc4ccccc4[nH]3)c2)c1", "Potency": "inconclusive: 16.4 µM [falling, single point]"},
      {"smiles": "O=C(Nc1ccccc1)c1nc[nH]c1C(=O)NCCCCCCNC(=O)c1[nH]cnc1C(=O)Nc1ccccc1", "Potency": "inconclusive: 25.9 µM [falling, partial curve, poor fit]"},
      {"smiles": "O=C(O)C1C2C=CC(C2)C1C(=O)NCc1ccoc1", "note": "(configuration not stated)", "Potency": "inconclusive: 3.66 µM [activator, partial curve, poor fit]"},
      {"smiles": "C=Cc1ccc(Cn2c(C(=O)O)c(CNCc3cccs3)c3ccc(C)cc32)cc1", "Potency": "active: 14.6 µM"},
      {"smiles": "CN(C)c1ccc(N=Cc2cccn2C)cc1", "Potency": "inconclusive: 32.6 µM [falling, partial curve, poor fit]"},
      {"smiles": "CCOc1ccc(NC(=O)c2cc3c(-c4ccccc4F)nn(C)c3s2)cc1", "activity change, negative = cytotoxicity": "inactive: 12.2%"},
      {"smiles": "CN(C)CCCN(C(=O)c1ccc(S(=O)(=O)N(C)Cc2ccccc2)cc1)c1nc2c(F)cccc2s1", "Potency": "inconclusive: 20.6 µM [falling, single point]"},
      {"smiles": "CC1C(=O)Nc2ccc(S(=O)(=O)N3CCN(c4cccc(C(F)(F)F)c4)CC3)cc2NC1=O", "note": "(configuration not stated)", "Potency": "inconclusive: 23.1 µM [falling, partial curve, poor fit]"},
      {"smiles": "CC(=O)N1c2ccc(S(=O)(=O)N3CCC(C(=O)Nc4cc(C)cc(C)c4)CC3)cc2CC1C", "note": "(configuration not stated)", "activity change, negative = cytotoxicity": "inactive: 5.03%"},
      {"smiles": "CCn1cc(C(=O)NCCCN2CCC(C)CC2)c(=O)c2cc(S(=O)(=O)N3CCCC3)ccc21", "Potency": "inconclusive: 25.9 µM [activator, single point]"},
      {"smiles": "CCNc1cc(Nc2c(C)n(C)n(-c3ccccc3)c2=O)c([N+](=O)[O-])c2nonc12", "Potency": "inconclusive: 23.1 µM [falling, partial curve, poor fit]"},
      {"smiles": "CCc1ccc(CNC(=O)c2c3c(nc4ccccc24)C(=O)N(C2CCCCC2)C3)cc1", "Potency": "inconclusive: 16.4 µM [falling, single point]"},
      {"smiles": "CC1=C(C(=O)OCc2ccc(C)cc2)C(c2ccccc2F)CC(=O)N1", "note": "(configuration not stated)", "activity change, negative = cytotoxicity": "inactive: -17%"},
      {"smiles": "CNC[C@H](CC1CCCCC1)NC[C@H](Cc1ccccc1)NCCC12CC3CC(CC(C3)C1)C2", "Potency": "inconclusive: 29.1 µM [falling, single point]"},
      {"smiles": "COc1ccccc1CCC(=O)OCc1csc(CC(=O)Nc2ccccc2C)n1", "activity change, negative = cytotoxicity": "inactive: -1.17%"},
      {"smiles": "CCN(CC)C(=O)[C@H]1C[C@H](CC(=O)NCc2cccc(C(F)(F)F)c2)C(=O)N2CCc3c([nH]c4cc(-c5ccco5)ccc34)[C@]12C", "Potency": "inconclusive: 29.1 µM [falling, single point]"},
      {"smiles": "O=C(C1CCC(N2C(=O)C3CC=CCC3C2=O)CC1)N1CCCCC1", "note": "(configuration not stated)", "Potency": "inconclusive: 29.1 µM [falling, single point]"}
    ]}
  ]
}
